# No constants are given. Whether binding was seen depends on the method and setting. In cells and extracts the contact can be indirect. A yes stands for co-enrichment or nearness to the bait. Other partners may have been found. Where a sequence is shown, tags or fusion partners need not be part of it.
# T1: GFP-SRP72 (human) (UniProt O76094)
# T1 sequence: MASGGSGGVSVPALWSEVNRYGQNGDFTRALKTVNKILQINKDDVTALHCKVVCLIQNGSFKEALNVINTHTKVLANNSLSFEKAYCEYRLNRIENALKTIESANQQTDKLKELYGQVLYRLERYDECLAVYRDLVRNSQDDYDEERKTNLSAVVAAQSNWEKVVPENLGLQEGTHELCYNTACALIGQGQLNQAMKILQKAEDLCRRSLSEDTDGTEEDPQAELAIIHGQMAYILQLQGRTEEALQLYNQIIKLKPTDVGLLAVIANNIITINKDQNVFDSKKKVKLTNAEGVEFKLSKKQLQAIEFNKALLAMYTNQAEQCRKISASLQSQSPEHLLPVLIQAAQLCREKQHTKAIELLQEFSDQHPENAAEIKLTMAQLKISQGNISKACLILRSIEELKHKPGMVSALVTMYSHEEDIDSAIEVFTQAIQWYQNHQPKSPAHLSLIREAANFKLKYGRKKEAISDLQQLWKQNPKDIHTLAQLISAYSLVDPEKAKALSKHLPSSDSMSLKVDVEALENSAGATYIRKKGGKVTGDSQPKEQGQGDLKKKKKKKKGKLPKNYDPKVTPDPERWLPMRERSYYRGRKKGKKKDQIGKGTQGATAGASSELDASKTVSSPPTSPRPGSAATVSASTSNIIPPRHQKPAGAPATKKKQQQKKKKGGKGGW
# T2: GFP-SRP19 (human) (UniProt P09132)
# T2 sequence: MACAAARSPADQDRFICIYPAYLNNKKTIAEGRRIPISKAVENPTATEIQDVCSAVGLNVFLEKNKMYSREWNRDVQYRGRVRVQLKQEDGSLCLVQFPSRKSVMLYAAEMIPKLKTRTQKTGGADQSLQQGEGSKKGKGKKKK
# B1: SRP68 (protein, UniProt Q9UHB9 1-627)
# chain: MAAEKQVPGGGGGGGSGGGGGSGGGGSGGGRGAGGEENKENERPSAGSKANKEFGDSLSLEILQIIKESQQQHGLRHGDFQRYRGYCSRRQRRLRKTLNFKMGNRHKFTGKKVTEELLTDNRYLLLVLMDAERAWSYAMQLKQEANTEPRKRFHLLSRLRKAVKHAEELERLCESNRVDAKTKLEAQAYTAYLSGMLRFEHQEWKAAIEAFNKCKTIYEKLASAFTEEQAVLYNQRVEEISPNIRYCAYNIGDQSAINELMQMRLRSGGTEGLLAEKLEALITQTRAKQAATMSEVEWRGRTVPVKIDKVRIFLLGLADNEAAIVQAESEETKERLFESMLSECRDAIQVVREELKPDQKQRDYILEGEPGKVSNLQYLHSYLTYIKLSTAIKRNENMAKGLQRALLQQQPEDDSKRSPRPQDLIRLYDIILQNLVELLQLPGLEEDKAFQKEIGLKTLVFKAYRCFFIAQSYVLVKKWSEALVLYDRVLKYANEVNSDAGAFKNSLKDLPDVQELITQVRSEKCSLQAAAILDANDAHQTETSSSQVKDNKPLVERFETFCLDPSLVTKQANLVHFPPGFQPIPCKPLFFDLALNHVAFPPLEDKLEQKTKSGLTGYIKGIFGFRS
# B2: SRα (protein, UniProt P08240 1-638)
# chain: MLDFFTIFSKGGLVLWCFQGVSDSCTGPVNALIRSVLLQERGGNNSFTHEALTLKYKLDNQFELVFVVGFQKILTLTYVDKLIDDVHRLFRDKYRTEIQQQSALSLLNGTFDFQNDFLRLLREAEESSKIRAPTTMKKFEDSEKAKKPVRSMIETRGEKPKEKAKNSKKKGAKKEGSDGPLATSKPVPAEKSGLPVGPENGVELSKEELIRRKREEFIQKHGRGMEKSNKSTKSDAPKEKGKKAPRVWELGGCANKEVLDYSTPTTNGTPEAALSEDINLIRGTGSGGQLQDLDCSSSDDEGAAQNSTKPSATKGTLGGMFGMLKGLVGSKSLSREDMESVLDKMRDHLIAKNVAADIAVQLCESVANKLEGKVMGTFSTVTSTVKQALQESLVQILQPQRRVDMLRDIMDAQRRQRPYVVTFCGVNGVGKSTNLAKISFWLLENGFSVLIAACDTFRAGAVEQLRTHTRRLSALHPPEKHGGRTMVQLFEKGYGKDAAGIAMEAIAFARNQGFDVVLVDTAGRMQDNAPLMTALAKLITVNTPDLVLFVGEALVGNEAVDQLVKFNRALADHSMAQTPRLIDGIVLTKFDTIDDKVGAAISMTYITSKPIVFVGTGQTYCDLRSLNAKAVVAALMKA
# B3: SRβ (protein, UniProt Q9Y5M8 1-271)
# chain: MASADSRRVADGGGAGGTFQPYLDTLRQELQQTDPTLLSVVVAVLAVLLTLVFWKLIRSRRSSQRAVLLVGLCDSGKTLLFVRLLTGLYRDTQTSITDSCAVYRVNNNRGNSLTLIDLPGHESLRLQFLERFKSSARAIVFVVDSAAFQREVKDVAEFLYQVLIDSMGLKNTPSFLIACNKQDIAMAKSAKLIQQQLEKELNTLRVTRSAAPSTLDSSSTAPAQLGKKGKEFEFSQLPLKVEFLECSAKGGRGDVGSADIQDLEKWLAKIA
# B4: MOGS (protein, UniProt Q13724 1-837)
# chain: MARGERRRRAVPAEGVRTAERAARGGPGRRDGRGGGPRSTAGGVALAVVVLSLALGMSGRWVLAWYRARRAVTLHSAPPVLPADSSSPAVAPDLFWGTYRPHVYFGMKTRSPKPLLTGLMWAQQGTTPGTPKLRHTCEQGDGVGPYGWEFHDGLSFGRQHIQDGALRLTTEFVKRPGGQHGGDWSWRVTVEPQDSGTSALPLVSLFFYVVTDGKEVLLPEVGAKGQLKFISGHTSELGDFRFTLLPPTSPGDTAPKYGSYNVFWTSNPGLPLLTEMVKSRLNSWFQHRPPGAPPERYLGLPGSLKWEDRGPSGQGQGQFLIQQVTLKIPISIEFVFESGSAQAGGNQALPRLAGSLLTQALESHAEGFRERFEKTFQLKEKGLSSGEQVLGQAALSGLLGGIGYFYGQGLVLPDIGVEGSEQKVDPALFPPVPLFTAVPSRSFFPRGFLWDEGFHQLVVQRWDPSLTREALGHWLGLLNADGWIGREQILGDEARARVPPEFLVQRAVHANPPTLLLPVAHMLEVGDPDDLAFLRKALPRLHAWFSWLHQSQAGPLPLSYRWRGRDPALPTLLNPKTLPSGLDDYPRASHPSVTERHLDLRCWVALGARVLTRLAEHLGEAEVAAELGPLAASLEAAESLDELHWAPELGVFADFGNHTKAVQLKPRPPQGLVRVVGRPQPQLQYVDALGYVSLFPLLLRLLDPTSSRLGPLLDILADSRHLWSPFGLRSLAASSSFYGQRNSEHDPPYWRGAVWLNVNYLALGALHHYGHLEGPHQARAAKLHGELRANVVGNVWRQYQATGFLWEQYSDRDGRGMGCRPFHGWTSLVLLAMAEDY
# B5: SRP72 (protein, UniProt O76094 1-671)
# chain: T1 sequence
# Target: T1, GFP-SRP72 (human)
# Experiment: affinity purification with mass spectrometry; IP-SILAC: GFP-Trap beads on whole-cell extracts of HEK293 Flp-In T-REx cells (GFP-SRP19, GFP-SRP9, GFP-SRP14) or U2OS Flp-In T-REx cells (GFP-SRP72) induced 3 h, against parental cells; HNT buffer (20 mM Hepes pH 7.4, 150 mM NaCl, 0.5% Triton X-100), 1.5 h at 4°C; positive: SILAC ratio above 1
row,Binder,binding
1,B1,binds
2,B2,binds
3,B3,binds
4,B4,binds

# Target: GFP-SRP9 (human) (UniProt P49458)
# Experiment: as above
row,Binder,binding
1,B1,binds weakly
2,B5,binds weakly
3,B2,binds
4,B3,binds
5,B4,binds

# Target: GFP-SRP14 (human) (UniProt P37108)
# Experiment: as above
row,Binder,binding
1,B2,binds
2,B3,binds
3,B4,binds

# Target: T2, GFP-SRP19 (human)
# Experiment: as above
row,Binder,binding
1,B1,binds
2,B5,binds
3,B2,binds
4,B3,binds
5,B4,binds
